Our source for the binding values is article PMC9675737.

Protein sequences, listed by entry. Tags and fused reporters are not part of them.
UniProt O60825: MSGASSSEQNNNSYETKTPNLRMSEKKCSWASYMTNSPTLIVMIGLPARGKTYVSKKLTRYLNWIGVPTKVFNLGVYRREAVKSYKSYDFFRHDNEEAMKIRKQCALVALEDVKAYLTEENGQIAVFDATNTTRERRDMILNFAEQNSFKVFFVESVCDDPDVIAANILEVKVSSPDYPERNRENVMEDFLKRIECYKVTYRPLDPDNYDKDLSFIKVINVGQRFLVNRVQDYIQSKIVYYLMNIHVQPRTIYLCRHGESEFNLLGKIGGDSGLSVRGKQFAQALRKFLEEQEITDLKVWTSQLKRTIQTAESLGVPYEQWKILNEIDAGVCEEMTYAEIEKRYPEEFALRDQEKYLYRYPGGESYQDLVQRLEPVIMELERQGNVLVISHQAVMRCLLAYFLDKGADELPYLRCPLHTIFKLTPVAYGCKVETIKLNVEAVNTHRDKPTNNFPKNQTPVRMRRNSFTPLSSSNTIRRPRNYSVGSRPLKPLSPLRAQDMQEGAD
UniProt P31946: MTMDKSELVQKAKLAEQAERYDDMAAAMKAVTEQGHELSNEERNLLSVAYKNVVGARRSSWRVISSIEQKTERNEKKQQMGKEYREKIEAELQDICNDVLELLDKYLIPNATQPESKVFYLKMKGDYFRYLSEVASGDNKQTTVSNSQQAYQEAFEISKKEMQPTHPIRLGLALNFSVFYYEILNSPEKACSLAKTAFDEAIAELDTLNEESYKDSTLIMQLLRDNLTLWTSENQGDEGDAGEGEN
UniProt Q16875: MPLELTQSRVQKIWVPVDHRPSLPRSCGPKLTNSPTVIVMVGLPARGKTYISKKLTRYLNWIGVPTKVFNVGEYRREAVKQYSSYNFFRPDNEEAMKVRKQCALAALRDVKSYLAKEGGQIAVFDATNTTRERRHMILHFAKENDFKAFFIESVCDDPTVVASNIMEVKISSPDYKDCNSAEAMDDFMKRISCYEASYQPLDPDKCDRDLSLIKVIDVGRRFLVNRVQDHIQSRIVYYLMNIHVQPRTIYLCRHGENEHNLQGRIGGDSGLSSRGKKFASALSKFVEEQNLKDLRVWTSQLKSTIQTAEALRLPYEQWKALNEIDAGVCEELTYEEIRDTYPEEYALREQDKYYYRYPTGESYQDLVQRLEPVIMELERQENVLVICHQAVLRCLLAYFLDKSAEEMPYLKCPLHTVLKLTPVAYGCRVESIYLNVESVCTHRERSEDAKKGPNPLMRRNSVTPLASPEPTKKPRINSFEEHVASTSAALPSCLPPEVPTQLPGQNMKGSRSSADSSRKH

Results are given in words; binding and its absence hold for the method and conditions named. In cells and extracts the contact can be indirect. These calls come from enrichment with a bait or labelling near it, and not all partners need be listed.

This assay concerns the target His-tagged PFKFB2 (human) (UniProt O60825). As to the kind of experiment: affinity purification with mass spectrometry; His-tag pull-down (Ni-IMAC, His-Trap) of His-PFKFB2 complexes from SKMel103 and UACC903 cells, untreated, 1 h GS and/or sorafenib 15 µM; LC-MS/MS.

On to 14-3-3β (from UniProt P31946 1-246), for which the binding result is listed as “binds”. For “PFKFB3 (endogenous) (from UniProt Q16875 1-520) (enzyme)”, the binding result is listed as “binds”.
